{"source": "patent US12497409B2", "about": "“Crystal form of gonadotropin releasing hormone antagonist, preparation method therefor, and use thereof” (Shenzhen Rentai Pharmatech Ltd., priority 2019, dated 2025)", "experiment": "Stability test (illumination, high temperature, high humidity; XRPD and HPLC purity)", "assay_type": "physicochemical", "conditions": "over all stability conditions of Tables 3 and 4", "description": "Illumination stability: samples of the crystal form C and the crystal form D of the compound of the formula (I) (respectively prepared in Example 1 and Example 2) were respectively taken and placed at 25° C. under an illumination condition of 4500 Lux for 10 days, and samples were taken respectively on day 5 and day 10 at fixed time points to determine XRPD patterns of the crystal forms C and D and the content of N-(4-(1-(2,6-difluorobenzyl)-5-((dimethylamino)methyl)-3-(6-methoxy-3-pyridazinyl)-2,4-dioxo-1,2,3,4-tetrahydrothieno[2,3-d]pyrimidin-6-yl)phenyl)-N′-methoxyurea in the crystal forms C and D, which were compared with those of the samples on day 0. […] A specific stability test method can refer to the method in appendix XI C of Part II of Chinese Pharmacopoeia (2015 edition); the purity detection adopts an HPLC method, and the purity can be determined by an external standard method with reference to the method in appendix VD of Chinese Pharmacopoeia (2015 edition) by using the samples on day 0 as a reference substance. instrument: high performance liquid chromatograph (model: Thermo U3000) chromatographic column: Agilent C18 column (5 μm, 150 mm×4.6 mm) mobile phase composition and gradient elution program: [table] detection wavelength: 254.4 nm; flow rate: 1 ml/min; sample size:15 μL; column temperature: 30° C.", "note": "Some of these results come from one statement about several compounds together.", "data": [{"compound": "CONC(=O)Nc1ccc(-c2sc3c(c2CN(C)C)c(=O)n(-c2ccc(OC)nn2)c(=O)n3Cc2c(F)cccc2F)cc1", "note": "[Crystal form C, N-(4-(1-(2,6-difluorobenzyl)-5-((dimethylamino)methyl)-3-(6-methoxy-3-pyridazinyl)-2,4-dioxo-1,2,3,4-tetrahydrothieno[2,3-d]pyrimidin-6-yl)phenyl)-N′-methoxyurea]", "values": [{"measurement": "purity change", "value": "less than 5%"}]}]}
